# Measured values: publication doi:10.1101/2025.08.05.25330579
# The comparison behind a weaker result is the experiment's own reference, which may not be listed here. Protein sequences can lack the tags named with them.
# Target: T1, RBM10 RRM2 R332H (UniProt P98175)
# T1 sequence (looked up): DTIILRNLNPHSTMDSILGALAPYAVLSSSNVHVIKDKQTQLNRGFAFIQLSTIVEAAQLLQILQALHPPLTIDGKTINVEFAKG
# Assay: ITC and NMR
# Conditions: recombinant protein; residues 300-384
sequence,measurement,value
UUGUCUGCUCCC [NUMB exon 12-derived 12mer RNA],binding result,binds more weakly
